The text below walks through data of PMC4470917.

Amino acid sequences for entries named in this document (tags omitted).
UniProt P00563: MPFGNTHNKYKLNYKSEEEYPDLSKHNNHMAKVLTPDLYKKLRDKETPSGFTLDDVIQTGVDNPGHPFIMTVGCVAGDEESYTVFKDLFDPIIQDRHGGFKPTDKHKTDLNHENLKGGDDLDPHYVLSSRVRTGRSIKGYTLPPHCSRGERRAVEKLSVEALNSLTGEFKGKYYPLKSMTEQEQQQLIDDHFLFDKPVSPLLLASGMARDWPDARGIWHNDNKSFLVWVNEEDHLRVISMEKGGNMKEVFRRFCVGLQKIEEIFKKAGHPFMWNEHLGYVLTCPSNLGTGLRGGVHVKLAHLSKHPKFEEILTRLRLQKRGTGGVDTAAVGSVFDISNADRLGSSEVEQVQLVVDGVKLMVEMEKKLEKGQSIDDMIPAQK
UniProt P05120: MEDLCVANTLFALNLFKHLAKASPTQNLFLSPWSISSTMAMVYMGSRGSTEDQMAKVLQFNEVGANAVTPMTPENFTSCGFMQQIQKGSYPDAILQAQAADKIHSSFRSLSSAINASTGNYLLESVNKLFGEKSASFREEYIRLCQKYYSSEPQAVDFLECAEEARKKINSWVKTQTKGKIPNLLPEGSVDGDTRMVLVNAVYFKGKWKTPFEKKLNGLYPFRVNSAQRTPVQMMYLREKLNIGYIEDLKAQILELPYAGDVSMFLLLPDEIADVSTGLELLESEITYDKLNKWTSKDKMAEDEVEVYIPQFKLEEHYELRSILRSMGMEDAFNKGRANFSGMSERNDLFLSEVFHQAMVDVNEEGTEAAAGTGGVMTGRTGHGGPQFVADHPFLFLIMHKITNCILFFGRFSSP

Results are given in words; binding and its absence hold for the method and conditions named. Some entries that bind do so weakly or less than the wild type.

For experiment [1], the target named is T1, porcine citrate synthase (CS) (porcine) (UniProt P00889).
T1 sequence: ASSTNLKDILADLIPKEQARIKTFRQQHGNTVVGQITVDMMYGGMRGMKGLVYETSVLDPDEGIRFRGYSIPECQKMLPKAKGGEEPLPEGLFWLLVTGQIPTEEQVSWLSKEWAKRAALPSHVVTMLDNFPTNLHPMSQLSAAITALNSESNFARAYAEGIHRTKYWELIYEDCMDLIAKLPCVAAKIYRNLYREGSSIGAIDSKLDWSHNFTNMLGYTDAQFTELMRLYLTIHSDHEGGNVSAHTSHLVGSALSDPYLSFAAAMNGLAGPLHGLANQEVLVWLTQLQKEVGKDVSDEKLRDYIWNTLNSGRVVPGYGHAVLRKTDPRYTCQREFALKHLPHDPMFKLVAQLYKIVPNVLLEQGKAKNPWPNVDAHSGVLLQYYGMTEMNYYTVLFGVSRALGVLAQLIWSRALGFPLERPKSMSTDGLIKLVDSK
Nature of the experiment: ELISA; native control protein on the plate (CPK or CS overnight at 4°C; BSA overnight at 37°C without DTT); serial dilution of SerpinB2 (6.25–250 μg.ml^-1), 1.5 h at 37°C; antibody detection; both purified. On the technique in general: ELISA stands for enzyme-linked immunosorbent assay.

The target in experiment [2] is creatine phosphokinase (CPK) (UniProt P00563). Nature of the experiment: ELISA; stressed protein on the plate (CPK or CS overnight at 43°C; BSA overnight at 37°C with 20 mM DTT, then 5 mM iodoacetic acid); serial dilution of SerpinB2 (6.25–250 μg.ml^-1), 1.5 h at 37°C; antibody detection; both purified.
The target in experiment [3] is T1, porcine citrate synthase (CS) (porcine). The experiment is described as above.
For experiment [4], the target named is creatine phosphokinase (CPK) (UniProt P00563). Description: condition: only native CPK (4°C control); SerpinB2 6.25–250 μg.ml^-1, 1.3 nM–5.3 μM; ELISA; native control protein on the plate (CPK or CS overnight at 4°C; BSA overnight at 37°C without DTT); serial dilution of SerpinB2 (6.25–250 μg.ml^-1), 1.5 h at 37°C; antibody detection; both purified.

“Recombinant human SerpinB2 (47 kDa) (from UniProt P05120 1-415)”: the binding entry in experiment [1] is “binds weakly”; in experiment [2], “binds”; in experiment [3] it was “binds weakly”; in experiment [4], “no binding”.
